# Results reported in patent publication US9040480 (dated 2015).
# Assay: general procedure: Fmoc solid-phase peptide synthesis; Fmoc-Gly-2-chlorotrityl polystyrene resin (2-CTC, CBL-Patras); HBTU/HOBt/diisopropylamine
# Settings: whole synthesis, scale of the general procedure 3 mmol
substance,measurement,setting,value
H-his-Ala-Glu-Gly-Thr-Phe-Thr-Ser-Asp-Val-Ser-Ser-Tyr-Leu-Glu-Gly-OH,crude purity (method not given),HPLC,more than 30% purity
same,difficulty met,,amino acids 8 to 1 posed severe problems
